Assay results from the supplement of paper PMC4604168 (melanoma cell lines).
This is one part of the list. Many values rest on one well or one pass, so single values are uncertain.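 Cells were imaged in 1,536-well plates, and nuclei stained with an antibody against cleaved PARP were counted against all DNA-stained nuclei to give the apoptosis fraction. Screening doses were chosen to leave most cells alive, and resting and induced cleaved-PARP levels differ strongly between cell lines.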

Experiments:
Experiment in all cases: cleaved PARP positive nuclei fraction relative to DMSO control; melanoma cells; higher = more apoptosis
Details in all cases: library dose: low library concentration; 72 h
WM115 = test system: WM115
WM1716 = test system: WM1716
WM1745 = test system: WM1745
WM3526 = test system: WM3526
WM3619 = test system: WM3619
WM451Lu = test system: WM451Lu

Structure (SMILES)	cleaved PARP positive nuclei fraction (WM115) [%]	cleaved PARP positive nuclei fraction (WM1716) [%]	cleaved PARP positive nuclei fraction (WM1745) [%]	cleaved PARP positive nuclei fraction (WM3526) [%]	cleaved PARP positive nuclei fraction (WM3619) [%]	cleaved PARP positive nuclei fraction (WM451Lu) [%]
CS(=O)(=O)c1ccc(C(=O)Nc2ccc(Cl)c(-c3ccccn3)c2)c(Cl)c1 [vismodegib] + OCc1c[nH]c2ccccc12 [Indole-3-carbinol] (first compound 1 µM, partner dose 0.8 µM)	72.1	183	91.8	38.6	108	220
CC1(C)CCC(c2ccc(Cl)cc2)=C(CN2CCN(c3ccc(C(=O)NS(=O)(=O)c4ccc(N[C@H](CCN5CCOCC5)CSc5ccccc5)c(S(=O)(=O)C(F)(F)F)c4)cc3)CC2)C1 + Oc1nc(-c2ccc(C(F)(F)F)cc2)nc2c1CSCC2 [XAV939] (first compound 0.4 µM, partner dose 2 µM)	231	627	972	79.8	130	158
CCCCCCCCc1ccc(CCC(N)(CO)CO)cc1 [fingolimod] + Oc1nc(-c2ccc(C(F)(F)F)cc2)nc2c1CSCC2 [XAV939] (first compound 2 µM, partner dose 2 µM)	44.9	251	132	107	106	30
Cn1sc(=O)n(Cc2ccccc2)c1=O + CN1CCN(c2ccc3nc(-c4c(N)c5c(F)cccc5[nH]c4=O)[nH]c3c2)CC1 [Dovitinib] (first compound 0.4 µM, partner dose 0.1 µM)	126	32.5	83.4	226	75.8	100
CCN(CC)CCNC(=O)c1c(C)[nH]c(/C=C2\C(=O)Nc3ccc(F)cc32)c1C [sunitinib] + CO[C@@H]1[C@H](N(C)C(=O)c2ccccc2)C[C@H]2O[C@]1(C)n1c3ccccc3c3c4c(c5c6ccccc6n2c5c31)C(=O)NC4 [Midostaurin] (first compound 0.4 µM, partner dose 0.08 µM)	144	167	205	122	106	72.1
CS(=O)(=O)c1ccc(C(=O)Nc2ccc(Cl)c(-c3ccccn3)c2)c(Cl)c1 [vismodegib] + O=C(Nc1cccc(Cl)c1)Nc1ncc(CCNc2ncnc3ccsc23)s1 [SNS314] (first compound 1 µM, partner dose 0.0008 µM)	32.8	10.8	83.8	81.3	72.7	80.8
NC1(c2ccc(-c3nc4ccn5c(=O)[nH]nc5c4cc3-c3ccccc3)cc2)CCC1 + COC(=O)c1sccc1S(=O)(=O)Nc1ccc(Nc2ccccc2)cc1OC [GSK0660] (first compound 0.4 µM, partner dose 1 µM)	238	162	90.4	272	84.1	129
NC(=O)c1ccc(N(C(N)=O)c2c(F)cccc2F)nc1-c1ccc(F)cc1F + C[C@@H]1CCN(C(=O)CC#N)C[C@@H]1N(C)c1ncnc2[nH]ccc12 [CP690550] (first compound 0.4 µM, partner dose 1 µM)	68.4	69.1	119	67.5	51.9	62.9
Cn1cnc2c(F)c(Nc3ccc(Br)cc3Cl)c(C(=O)NOCCO)cc21 [selumetinib] + Cn1cc(/C=C2\C(=O)Nc3cccnc32)c2ccccc21 [GW441756] (first compound 0.015 µM, partner dose 0.4 µM)	87.1	70.5	93.7	105	91	95.8
C[C@]1(O)C[C@@H](c2nc(-c3ccc4ccc(-c5ccccc5)nc4c3)c3c(N)nccn32)C1 + C#Cc1cccc(Nc2ncnc3cc(OCCOC)c(OCCOC)cc23)c1 [erlotinib] (first compound 0.4 µM, partner dose 0.8 µM)	54	101	124	74.3	97.1	89.4
CS(=O)(=O)c1ccc(C(=O)Nc2ccc(Cl)c(-c3ccccn3)c2)c(Cl)c1 [vismodegib] + N#Cc1c(O)c2c(-c3ccc(-c4ccccc4O)cc3)csc2[nH]c1=O [A769662] (first compound 1 µM, partner dose 2 µM)	44.7	104	76	38.7	90.9	26.9
CC(=O)O[C@@]12CO[C@@H]1C[C@H](O)[C@@]1(C)C(=O)[C@H](O)C3=C(C)[C@@H](OC(=O)[C@H](O)[C@@H](NC(=O)OC(C)(C)C)c4ccccc4)C[C@@](O)([C@@H](OC(=O)c4ccccc4)[C@H]21)C3(C)C [Docetaxel] + N#Cc1c(O)c2c(-c3ccc(-c4ccccc4O)cc3)csc2[nH]c1=O [A769662] (first compound 0.0001 µM, partner dose 2 µM)	516	246	163	167	116	187
C[C@]1(O)C[C@@H](c2nc(-c3ccc4ccc(-c5ccccc5)nc4c3)c3c(N)nccn32)C1 + O=c1cc(-c2cccc3c2Sc2ccccc2S3)oc(N2CCOCC2)c1 [KU55933] (first compound 0.4 µM, partner dose 1 µM)	81.9	43.1	95.1	84.6	97.8	108
CC1(C)CCC(c2ccc(Cl)cc2)=C(CN2CCN(c3ccc(C(=O)NS(=O)(=O)c4ccc(N[C@H](CCN5CCOCC5)CSc5ccccc5)c(S(=O)(=O)C(F)(F)F)c4)cc3)CC2)C1 + O=S(=O)(c1ccccc1)N(CC(F)(F)F)c1ccc(C(O)(C(F)(F)F)C(F)(F)F)cc1 [T0901317] (first compound 0.4 µM, partner dose 1.4 µM)	78.2	171	502	180	120	143
Cn1cnc2c(F)c(Nc3ccc(Br)cc3Cl)c(C(=O)NOCCO)cc21 [selumetinib] + CN(NC(=O)CC(=O)NN(C)C(=S)c1ccccc1)C(=S)c1ccccc1 [STA4783] (first compound 0.015 µM, partner dose 0.006 µM)	110	82.3	250	144	179	59.6
COc1ccc(C2=N[C@@H](c3ccc(Cl)cc3)[C@@H](c3ccc(Cl)cc3)N2C(=O)N2CCNC(=O)C2)c(OC(C)C)c1 [Nutlin-3] + Cc1cc([N+](=O)[O-])ccc1NS(=O)(=O)c1cc(Cl)ccc1Cl [FH535] (first compound 0.1 µM, partner dose 1 µM)	240	156	92.8	68.3	88.3	69.7
CCN(CC)CCNC(=O)c1c(C)[nH]c(/C=C2\C(=O)Nc3ccc(F)cc32)c1C [sunitinib] + C=CCNC1=C2C[C@@H](C)C[C@H](OC)[C@H](O)[C@@H](C)/C=C(\C)[C@H](OC(N)=O)[C@@H](OC)/C=C\C=C(/C)C(=O)NC(=CC1=O)C2=O [Tanespimycin] (first compound 0.4 µM, partner dose 0.002 µM)	148	124	95.9	175	81.3	178
NC(=O)c1ccc(N(C(N)=O)c2c(F)cccc2F)nc1-c1ccc(F)cc1F + c1cc(-c2cnn3cc(-c4ccc(OCCN5CCCCC5)cc4)cnc23)ccn1 [Dorsomorphin] (first compound 0.4 µM, partner dose 0.4 µM)	180	25	100	74.8	99.8	128
C[C@@H](N)c1ccc(C(=O)Nc2ccnc3[nH]ccc23)cc1 + Cn1cnc2c(F)c(Nc3ccc(Br)cc3Cl)c(C(=O)NOCCO)cc21 [selumetinib] (first compound 0.4 µM, partner dose 0.015 µM)	82.8	116	112	70.2	120	157
CC1(C)CCC(c2ccc(Cl)cc2)=C(CN2CCN(c3ccc(C(=O)NS(=O)(=O)c4ccc(N[C@H](CCN5CCOCC5)CSc5ccccc5)c(S(=O)(=O)C(F)(F)F)c4)cc3)CC2)C1 + CO[C@@H]1[C@H](N(C)C(=O)c2ccccc2)C[C@H]2O[C@]1(C)n1c3ccccc3c3c4c(c5c6ccccc6n2c5c31)C(=O)NC4 [Midostaurin] (first compound 0.4 µM, partner dose 0.08 µM)	83.9	822	718	67.4	108	78.8
CC(=O)O[C@@]12CO[C@@H]1C[C@H](O)[C@@]1(C)C(=O)[C@H](O)C3=C(C)[C@@H](OC(=O)[C@H](O)[C@@H](NC(=O)OC(C)(C)C)c4ccccc4)C[C@@](O)([C@@H](OC(=O)c4ccccc4)[C@H]21)C3(C)C [Docetaxel] + CN1CCN(c2ccc3nc(-c4c(N)c5c(F)cccc5[nH]c4=O)[nH]c3c2)CC1 [Dovitinib] (first compound 0.0001 µM, partner dose 0.1 µM)	542	1590	240	105	160	90.4
NC1(c2ccc(-c3nc4ccn5c(=O)[nH]nc5c4cc3-c3ccccc3)cc2)CCC1 + Cn1cncc1[C@@](N)(c1ccc(Cl)cc1)c1ccc2c(c1)c(-c1cccc(Cl)c1)cc(=O)n2C [tipifarnib] (first compound 0.4 µM, partner dose 0.01 µM)	287	70.4	109	519	120	67.9
Cn1sc(=O)n(Cc2ccccc2)c1=O + Cn1nnc2c(C(N)=O)ncn2c1=O [temozolomide] (first compound 0.4 µM, partner dose 2 µM)	132	91.4	97.1	33.4	92.9	49.3
Cn1cnc2c(F)c(Nc3ccc(Br)cc3Cl)c(C(=O)NOCCO)cc21 [selumetinib] + COc1ccc2c(c1)CCC1C2CCC2(C)C(NCCCCCCN3C(=O)C=CC3=O)CCC12 [U73122] (first compound 0.015 µM, partner dose 0.4 µM)	82.7	70.5	105	96.2	111	149

As a working copy, part of the list above:
Structure (SMILES)	cleaved PARP positive nuclei fraction (WM115) [%]	cleaved PARP positive nuclei fraction (WM1716) [%]	cleaved PARP positive nuclei fraction (WM1745) [%]	cleaved PARP positive nuclei fraction (WM3526) [%]	cleaved PARP positive nuclei fraction (WM3619) [%]	cleaved PARP positive nuclei fraction (WM451Lu) [%]
CCN(CC)CCNC(=O)c1c(C)[nH]c(/C=C2\C(=O)Nc3ccc(F)cc32)c1C [sunitinib] + CO[C@@H]1[C@H](N(C)C(=O)c2ccccc2)C[C@H]2O[C@]1(C)n1c3ccccc3c3c4c(c5c6ccccc6n2c5c31)C(=O)NC4 [Midostaurin] (first compound 0.4 µM, partner dose 0.08 µM)	144	167	205	122	106	72.1
CS(=O)(=O)c1ccc(C(=O)Nc2ccc(Cl)c(-c3ccccn3)c2)c(Cl)c1 [vismodegib] + O=C(Nc1cccc(Cl)c1)Nc1ncc(CCNc2ncnc3ccsc23)s1 [SNS314] (first compound 1 µM, partner dose 0.0008 µM)	32.8	10.8	83.8	81.3	72.7	80.8
